Source: PubChem BioAssay AID1259308 (NCATS, 2017)
The whole screen tested about 59,000 reagents; below is a random part of them. About 1,510 of all reagents (2.6%) count as active. 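Calls use total luciferase alone and ignore viability, so some active siRNAs may act by altering cell number.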 A number with no mark means an inactive call. Reagents against one gene are numbered here. Further read-outs or replicates are left out here.

Assay: 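Genes whose loss raises luciferase production in HEK293 cells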 (primary screen)
System: human HEK293 embryonic kidney cells stably expressing firefly luciferase (HEK-CMV-Luc2-Hygro)
Knock-down reagent: single siRNA against human genes, 0.8 pmol siRNA per well
Timing: 72 h
Measured: 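Reporter luminescence and viable-cell signal on separate replicate plates, given as percent of non-targeting control and median/MAD z-scores, plus per-cell luciferase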
Direction: total luciferase, z-score: higher = more reporter protein produced
Call rule: 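Active when the median/MAD z-score for overall luciferase is greater than 3; a gene was taken forward for validation with new siRNAs if at least two of its three siRNAs passed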
Meaning of the calls: active = raised luciferase; inactive = no rise

| Gene | reagent | total luciferase, z-score |
| --- | --- | --- |
| TKT | 1 | -0.571 |
| TKT | 2 | -1.29 |
| TKT | 3 | -0.331 |
| LINC02453 | 1 | -1.59 |
| LINC02453 | 2 | -0.89 |
| LINC02453 | 3 | 2.16 |
| TNFAIP6 | 1 | -1.03 |
| TNFAIP6 | 2 | -0.614 |
| TNFAIP6 | 3 | 0.231 |
| FKBP10 | 1 | -0.296 |
| FKBP10 | 2 | 1.26 |
| FKBP10 | 3 | -0.678 |
| ZZEF1 | 1 | 0.4 |
| ZZEF1 | 2 | -1.43 |
| ZZEF1 | 3 | -0.545 |
| PMM1 | 1 | 0.49 |
| PMM1 | 2 | 0.261 |
| PMM1 | 3 | -1.98 |
| MYH6 | 1 | 0.427 |
| MYH6 | 2 | -0.684 |
| MYH6 | 3 | -0.586 |
| GABRA4 | 1 | -0.686 |
| GABRA4 | 2 | -0.992 |
| GABRA4 | 3 | -0.81 |
| NMT1 | 1 | 1.84 |
| NMT1 | 2 | -0.362 |
| NMT1 | 3 | -0.409 |
| TGFA | 1 | 0.176 |
| TGFA | 2 | 0.537 |
| TGFA | 3 | 0.429 |
| TMEM62 | 1 | 2.21 |
| TMEM62 | 2 | -0.229 |
| TMEM62 | 3 | 0.287 |
| LPP | 1 | -0.704 |
| LPP | 2 | -0.138 |
| LPP | 3 | -0.358 |
| SALL2 | 1 | 2 |
| SALL2 | 2 | -0.753 |
| SALL2 | 3 | -0.987 |
